Results as given in the supplement of paper PMC3334620.
In all, about 33,000 sequences were measured (“E-score (-0.5 to 0.5)”: median about -8e-05, highest 2% from about 0.23 on). Some of the results follow.

The sequences below were run against T1, Nrg2 (UniProt P38082) (assay: PBM E-score (8-mer binding enrichment) (E-score (-0.5 to 0.5)); higher = stronger / more preferred TF binding). Conditions: protein concentration: 100 nM; construct: GST-full length.
T1 sequence: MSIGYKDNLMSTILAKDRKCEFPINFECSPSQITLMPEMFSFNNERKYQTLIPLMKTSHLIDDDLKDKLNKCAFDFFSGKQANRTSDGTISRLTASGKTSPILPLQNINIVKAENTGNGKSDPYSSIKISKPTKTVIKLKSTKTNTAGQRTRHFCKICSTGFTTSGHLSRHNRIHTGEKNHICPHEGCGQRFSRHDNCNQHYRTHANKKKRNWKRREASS
Method: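 Universal 'all 10-mer' protein binding microarrays (Agilent AMADID 015681) probed with GST-tagged S. cerevisiae TFs (full-length or DBD) made by in vitro transcription/translation (PURExpress), about 100-200 nM. Bound TF was detected with fluorescent anti-GST. Each ungapped 8-mer (which stands for itself and its reverse complement) is scored by the PBM enrichment score (E-score), a modified Wilcoxon-Mann-Whitney statistic from -0.5 to +0.5, computed with the Universal PBM Analysis Suite. Scale: above 0.35 generally sequence-specific binding.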

Row | Sequence | PBM E-score
1 | ATACACAA | -0.0689
2 | GACCAGAC | -0.19
3 | ACGCGGAG | -0.00644
4 | CGGTCCCC | -0.0264
5 | AGGAGATA | -0.00147
6 | GGGCCGTA | -0.0556
7 | CGTCTTAG | -0.327
8 | ATAGCAGG | 0.0203
9 | CGCTGTAG | -0.152
10 | AACTCAGG | 0.0297
11 | CGCCTTGC | -0.00451
12 | AGGATTTG | -0.0317
13 | TGACGTAA | -0.175
14 | AAATTAGG | 0.18
15 | AGGACTAC | -0.266
16 | ACCCAGAA | 0.128
17 | AATAATTC | 0.206
18 | ATCCCTGC | 0.157
19 | ATAATGAA | 0.199
20 | GCCTCTGA | -0.0808
21 | ATTTAGGA | -0.104
22 | AAGAGTCC | -0.11
23 | CAGGCACC | -0.275
24 | CTCGTCAG | 0.126
25 | ACATGCCA | 0.0366

Quoted from the listing:
Value for ATCCCTGC under PBM E-score: 0.157
Value for CGGTCCCC under PBM E-score: -0.0264
Value for CGCTGTAG under PBM E-score: -0.152
Value for ATAATGAA under PBM E-score: 0.199
Value for AAGAGTCC under PBM E-score: -0.11

(listing goes on)

Row | Sequence | PBM E-score
26 | CCGCTCTC | -0.0686
27 | TCTTGTCA | -0.0232
28 | GATCACTA | 0.0562
29 | AACGTCCG | -0.0956
30 | TAAATTTA | 0.165
31 | CGATAATA | 0.0922
32 | AGTCCGCA | -0.0783
33 | CGTCCGTC | -0.246
34 | CTTCGTCC | -0.114
35 | GAGCGGTA | -0.0416
36 | ACAAAAGA | 0.182
37 | TAAAGCGA | 0.117
38 | ATGGGTAC | -0.0449
39 | CACGATGC | -0.101
40 | AGTTTAGG | -0.288
41 | AACCATCT | -0.104
42 | CCCCTCGC | -0.0902
43 | AATGCAGA | 0.136
44 | CGTTCGAA | 0.162
45 | GCTGATAA | 0.0839
46 | GGACTACA | -0.052
47 | CGGAAAAC | 0.0191
48 | CATAGATC | 0.028
49 | TGGTGTAA | 0.0348
50 | AACTAAAA | 0.0978

Another view of some results above:
Row	Sequence	PBM E-score
41	AACCATCT	-0.104
42	CCCCTCGC	-0.0902
43	AATGCAGA	0.136

Remaining list, next part.

Row | Sequence | PBM E-score
51 | AAACTACG | 0.0478
52 | CACTCCCA | -0.091
53 | CGCATGAG | 0.0315
54 | AACGTATA | 0.117
55 | ATTCGTCG | -0.00164
56 | ATTACAAT | -0.0701
57 | ATGGCTGG | -0.148
58 | ACATCCGT | -0.0596
59 | CCGGGGTC | -0.086
60 | ATCAAGGC | 0.00281
61 | ACGCAACA | 0.0741
62 | GATCACCA | 0.129
63 | CTCAGCAC | 0.0146
64 | CACCAGCA | -0.0708
65 | AAACGGCC | -0.053
66 | CCTGGAAA | 0.0778
67 | CGGGTTGA | 0.0125
68 | TACGCGTA | 0.172
69 | GTGGAGAA | 0.0301
70 | CCTTCGCA | -0.181
71 | GCTACCTA | 0.00394
72 | GTTCCCTA | -0.155
73 | ACTACGAA | -0.0864
74 | GTGATGCA | 0.154
75 | ATACAAAT | 0.173

Row | Sequence | PBM E-score
76 | TAATAGCA | 0.0115
77 | ATCTTCCG | -0.0338
78 | ACCGATCT | -0.001
79 | AAGCATCG | -0.00786
80 | CGATGAAG | -0.0228
81 | AGACGAAT | 0.0425
82 | GCCCCCGA | -0.395
83 | ATTTCTTA | 0.0783
84 | ACTGTTGG | -0.179
85 | AGGGGATA | 0.0551
86 | CCTTAACA | 0.0513
87 | AGAGTCTC | -0.163
88 | CCGCAATC | 0.159
89 | ATTTAGTG | 0.0472
90 | AGGTGTAT | 0.092
91 | CTACTCCC | -0.0742
92 | ATGATATA | -0.00525
93 | CTTGGGAC | -0.0635
94 | CGTAAACG | -0.212
95 | ACGGTTAC | 0.119
96 | ATAGCACA | 0.132
97 | GACCGCCC | -0.143
98 | AAGTCTGT | -0.0411
99 | ACCGTTTC | -0.0786
100 | CTACCGTA | -0.153

3 entries drawn at random from those above:
Row | Sequence | PBM E-score
27 | TCTTGTCA | -0.0232
1 | ATACACAA | -0.0689
76 | TAATAGCA | 0.0115

(further entries)

Row | Sequence | PBM E-score
101 | CGGGTTGC | -0.00542
102 | CCGACAGC | -0.189
103 | ATACGAAG | 0.0208
104 | AAATAAAC | 0.1
105 | CTACTAGA | 0.00869
106 | CCCTTTAG | -0.0907
107 | CTAACCAG | -0.0116
108 | CAAATATG | -0.0116
109 | ATCTCTCC | 0.0215
110 | TAATGCAA | -0.0601
111 | AAGACGAA | 0.142
112 | AAACAGGA | -0.0481
113 | GATCAATC | -0.127
114 | GCCAACGC | -0.00531
115 | CAGCGCTG | -0.0798
116 | CCGTAGGA | -0.217
117 | CGTGGCCA | -0.18
118 | CCATTTTA | 0.159
119 | GGAAGGCA | -0.1
120 | AATGCGCC | 0.132
121 | ATTTCTCC | 0.0443
122 | AACTTTCT | 0.109
123 | ATAGTAGC | 0.25
124 | CGGATCGC | 0.0299
125 | GGACGGCA | -0.169

Row | Sequence | PBM E-score
126 | GTGTGACA | -0.162
127 | AAGCTGAA | 0.00198
128 | GGAGCACC | 0.00474
129 | ATCGAGTG | 0.127
130 | ACTTGCCG | -0.11
131 | CTGACAAC | 0.0747
132 | AGTATGGC | 0.00691
133 | ATCAGGAC | -0.00431
134 | AGGTTTCG | -0.0228
135 | GTCCGCGA | -0.0693
136 | ATCGCCGC | -0.0111
137 | AAGGTGCC | -0.104
138 | ACGGCTTC | -0.00831
139 | GAGAATGA | 0.0708
140 | GTTGATAA | 0.232
141 | GGCCTCCA | -0.107
142 | CGACCACG | -0.0616
143 | CTGCAGCC | 0.00529
144 | CCGTCAAG | -0.0837
145 | CAACGGGG | -0.0389
146 | ATCACCAT | 0.0544
147 | AACAATAA | 0.26
148 | CTCGCCAC | 0.00234
149 | CCCAAGGA | -0.0867
150 | CATTTAAC | -0.179

Row | Sequence | PBM E-score
151 | ATTCACCG | 0.127
152 | GTATCGAC | 0.123
153 | ACCGAATG | -0.0349
154 | GCAACACA | 0.0571
155 | AACCATGT | 0.00314
156 | AGTCTAAC | -0.163
157 | AAACGCCG | 0.0737
158 | GAGAGGGC | -0.243
159 | ACCTCTGA | 0.0539
160 | CAGTGAAG | -0.0253
161 | CCCCTGGC | 0.11
162 | CGAGATGA | 0.0537
163 | AACCTGGC | -0.18
164 | ATCTTGGG | 0.0749
165 | GTCCCAAC | 0.0374
166 | GACTAATC | 0.0266
167 | GGTCACAA | 0.0577
168 | GTAGAGTA | -0.0442
169 | ACTAATTC | 0.0973
170 | CAAGGTGC | -0.0554
171 | GATGCATC | 0.191
172 | AAAGGCCC | -0.0652
